The whole screen tested about 580,000 compounds, of which about 6,100 (1.1%) were called active. The shares of active, inactive and inconclusive entries below differ from those in the screen. Calls follow the shape of the dose curve; as a rule, active = well fitted inhibition curve with a large enough effect; inconclusive = small, poorly fitted or top-dose-only effect, or another doubt; inactive = no such curve, though single readings can be large or run the other way. A potency beside an inconclusive call is a rough fit, not a confirmed value.
biological target: Polyunsaturated fatty acid lipoxygenase ALOX12 (Homo sapiens) (UniProt P18054); test: Primary qHTS assay for inhibitors of human arachidonate 12S-lipoxygenase (ALOX12): Round 2; conditions: purified 12hLO, xylenol orange hydroperoxide absorbance; activity change, negative = inhibition: at 108 µM (top of the series) unless noted
Outline: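 Purified human 12hLO at 150 nM in 25 mM Hepes, 0.01% Triton X-100, pH 7.0, preincubated 15 min at room temperature with compound. Reaction started with 40 uM arachidonic acid, 30 min at room temperature. Hydroperoxide measured by Fe-xylenol orange, 573/405 nm absorbance ratio.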
% is scaled to controls: 0 for no effect and ±100 for the full control effect; potency is read from the fitted curve at half-maximal effect.

Amino acid sequences for entries named in this document (tags omitted). A change or cut given only in a name is not applied to a line headed by its entry.
UniProt P18054: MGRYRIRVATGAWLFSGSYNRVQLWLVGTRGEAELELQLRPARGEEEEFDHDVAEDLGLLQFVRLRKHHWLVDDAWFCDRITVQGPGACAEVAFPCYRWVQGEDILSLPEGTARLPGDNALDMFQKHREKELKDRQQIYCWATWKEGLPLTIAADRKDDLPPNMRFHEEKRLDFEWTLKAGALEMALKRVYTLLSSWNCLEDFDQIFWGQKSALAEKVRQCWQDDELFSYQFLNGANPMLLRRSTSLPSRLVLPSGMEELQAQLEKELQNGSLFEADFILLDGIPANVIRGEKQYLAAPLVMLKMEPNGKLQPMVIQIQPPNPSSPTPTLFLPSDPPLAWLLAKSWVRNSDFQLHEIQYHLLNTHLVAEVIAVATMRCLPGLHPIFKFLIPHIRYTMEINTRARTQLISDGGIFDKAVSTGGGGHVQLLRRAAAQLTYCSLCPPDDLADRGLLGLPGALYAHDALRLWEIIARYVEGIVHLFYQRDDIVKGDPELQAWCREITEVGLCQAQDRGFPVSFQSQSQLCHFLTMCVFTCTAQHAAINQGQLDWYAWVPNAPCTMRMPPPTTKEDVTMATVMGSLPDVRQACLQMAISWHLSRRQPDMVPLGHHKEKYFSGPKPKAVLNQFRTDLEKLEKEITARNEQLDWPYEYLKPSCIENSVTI

Row | Compound | Potency | activity change, negative = inhibition
1 | Cc1ccc(N2CCN(C(=O)c3ccc4c(Cl)c5c(nc4c3)CCCC5)CC2)c(C)c1 | inactive | 
2 | COc1cc(/C=C/C(=O)c2ccc(C#N)cc2)cc(Br)c1O | active: 8.91 µM | 
3 | O=C(OCc1cc(-c2ccccc2)on1)c1cccc(C(F)(F)F)c1 | inactive | 
4 | COc1ccc(-n2nc(C)c3c2NC(=O)CC3c2ccccc2OCC(C)C)nn1 (stereo not drawn) | inconclusive: 12.6 µM [inhibitor, partial curve, poor fit] | 
5 | O=C(c1ccccc1)N1CCC2(CC1)C(=NC1CCCCC1)NC(=O)N2c1cc(F)cc(F)c1 |  | inactive: 3.17% [at 6.33 µM]
6 | Cc1ccc(Nc2cc(C)nc3ncnn23)c(Cl)c1 | inconclusive: 25.1 µM [inhibitor, partial curve, poor fit] | 
7 | Cc1ccc(-n2c(CNc3ccc(C)c(Cl)c3)n[nH]c2=S)cc1 | active: 44.7 µM | 
8 | CCNc1oc(/C=C/c2cc(OC)c(OC)c(OC)c2)nc1C#N | inconclusive: 141 µM [inhibitor, single point] | 
9 | Cn1c(=O)c2cc(NC(=O)Cc3cccnc3)ccc2n1-c1ccc2ccccc2c1 | inactive | 
10 | Cc1ccc(Cl)cc1Nc1nn2c(=O)c3ccc(C(=O)NCc4cccs4)cc3nc2s1 | inconclusive: 79.4 µM [inhibitor, partial curve, poor fit] | 
11 | COCCn1c(C)cnc1CC1CCCN(C(=O)c2ccnn2C)C1 (stereo not drawn) | inactive | 
12 | C=CCNc1nnc(Sc2ncccc2[N+](=O)[O-])s1 | inconclusive: 28.2 µM [inhibitor, partial curve, poor fit] | 
13 | CC(C)Oc1ccc(C(=O)CCN2CCOCC2)cc1 | inconclusive: 112 µM [inhibitor, partial curve, poor fit] | 
14 | CC(=Cc1ccccc1)C=C1SC(=S)N(CCCC(=O)Nc2ccc(C(=O)O)cc2)C1=O | inconclusive: 44.7 µM [inhibitor, partial curve, poor fit] | 
15 | CN1CCN(C(=S)NC(=O)c2ccccc2Cl)CC1 | inconclusive: 25.1 µM [inhibitor, single point] | 
16 | Cc1ccc(NC(=O)N2CCN(c3nnc(C)c4c(C)n(-c5ccccc5)nc34)CC2)cc1Cl | inconclusive: 50.1 µM [inhibitor, partial curve, poor fit] | 
17 | O=C(COC(=O)c1ccc2ccccc2n1)Nc1ccc2ccccc2c1 | inconclusive: 5.01 µM [inhibitor, full curve, poor fit] | 
18 | CSc1ccc(NC(=O)C2(C)CCN2C(=O)c2cc(C)n(C)n2)cc1 (stereo not drawn) | inactive | 
19 | O=C(Nc1ccc(N2CCN(C(=O)c3ccccc3)CC2)cc1)c1ccc2c(c1)OCCO2 | inactive | 
20 | CCOc1ccccc1CNC(=O)c1cnc2sc(N3CCCC3)nn2c1=O | inactive | 
21 | CN(C)C/C=C(/c1ccc(Br)cc1)c1cccnc1 | inconclusive: 44.7 µM [inhibitor, partial curve] | 

Row | Compound | Potency | activity change, negative = inhibition
22 | O=C(O)c1cc(-c2ccccc2)n(-c2ccc(Cl)cc2)n1 | inconclusive: 50.1 µM [inhibitor, partial curve, poor fit] | 
23 | O=C(O)c1ccc2c(=O)[nH]c(CN3CCOCC3)nc2c1 | inconclusive: 17.8 µM [inhibitor, single point] | 
24 | Nc1ccc(N2CCN(c3cccc(Cl)c3)CC2)cc1 | inconclusive: 17.8 µM [inhibitor, full curve] | 
25 | CCN1CCN(CCOc2cccc(Cl)c2Cl)CC1 | inconclusive: 0.282 µM [inhibitor, full curve, poor fit] | 
26 | CCCCN(CC)C(=O)CCNC(=O)Cn1cnc2sc3c(c2c1=O)CCCC3 | inactive | 
27 | Cc1c(N2C(=O)c3ccc(Br)cc3C2=O)c(=O)n(-c2ccccc2)n1C | inactive | 
28 | O=c1oc2ccccc2cc1-c1csc(Nc2ccccc2Cl)n1 | inconclusive: 31.6 µM [inhibitor, partial curve, poor fit] | 
29 | Cc1ccc(/C=C/C(=O)O)cc1S(=O)(=O)NC1CCS(=O)(=O)C1 (stereo not drawn) | inconclusive: 39.8 µM [inhibitor, partial curve, poor fit] | 
30 | CNc1oc(Cc2ccccc2)nc1S(=O)(=O)c1ccc(Cl)cc1 | inconclusive: 39.8 µM [inhibitor, single point] | 
31 | O=C(c1cc(-c2ccncc2)nc2ccccc12)N1CCCC(C(F)(F)F)C1 (stereo not drawn) | inactive | 
32 | CNC(=S)NNC(=O)c1ccc(NNC(=S)NC)cc1 | inconclusive: 39.8 µM [inhibitor, partial curve, poor fit] | 
33 | CCOC(=O)C(Cc1ccc(O)cc1)NC(=O)CNC(=O)C(CC(C)C)NC(=O)OC(C)(C)C (stereo not drawn) | inactive | 
34 | COC(=O)C1Cc2c([nH]c3ccccc23)C2CCC(=O)N12 (stereo not drawn) | inconclusive: 44.7 µM [inhibitor, partial curve, poor fit] | 
35 | N#Cc1ccccc1CN1CCSc2ccccc21 | inconclusive: 31.6 µM [inhibitor, partial curve, poor fit] | 
36 | O=C(NNc1ccnc2cc(Cl)ccc12)C1CCCCC1 | inconclusive: 112 µM [inhibitor, single point] | 
37 | COc1ccc(CN2CCCC3(CC(c4cccc(C(F)(F)F)c4)=NO3)C2)cc1 (stereo not drawn) |  | inconclusive: -33% [inhibitor]
38 | Cc1cc(C(=O)COC(=O)c2cccc(NS(C)(=O)=O)c2)c(C)n1CC1CCCO1 (stereo not drawn) | inconclusive: 100 µM [inhibitor, single point] | 
39 | O=C(O)C1CN(c2nc(Cl)ccc2[N+](=O)[O-])C1 | inactive | 
40 | COc1cccc(C(=O)N/N=C(\C)CC(=O)Nc2ccc(N(C)C)cc2)c1 | inactive | 
41 | Fc1ccc(-c2nccc3[nH]nc(-c4ccccc4)c23)cc1 | inactive | 
42 | Cc1ccc(NC(=O)CN(C)C(=O)c2cc3cc(C)ccc3nc2C)cc1 | inconclusive: 39.8 µM [inhibitor, single point] | 

Row | Compound | Potency | activity change, negative = inhibition
43 | COc1cccc(Cn2c(=O)c(C)nc3cnc(N(C)C)nc32)c1 | inconclusive: 25.1 µM [inhibitor, single point] | 
44 | Cc1noc(C)c1C(=O)N1CC[C@H](N2CCN(C)CC2)[C@H](CCC(=O)O)C1 | inactive | 
45 | O=C(Cn1nc(C(=O)O)c2ccccc2c1=O)Nc1ccc(F)cc1 | inconclusive: 50.1 µM [inhibitor, partial curve, poor fit] | 
46 | CC(=O)c1ccc(N2CCN(C(=S)Nc3ccc(Oc4ccccc4)cc3)CC2)cc1 | inconclusive: 44.7 µM [inhibitor, partial curve, poor fit] | 
47 | CCOC(=O)C1=C(c2ccccc2)NC(=O)NC1c1cc(Cl)c(O)c(OC)c1 (stereo not drawn) | inconclusive: 39.8 µM [inhibitor, partial curve, poor fit] | 
48 | CC1(c2noc(-c3ccccc3)n2)CCN(C(=O)C2CCN(C(=O)c3ccc(=O)[nH]c3)CC2)CC1 | inconclusive: 7.08 µM [inhibitor, full curve, poor fit] | 
49 | CCn1cc(C(=O)N2CCC(C3CCN(C(=O)NC)CC3)C2)cn1 (stereo not drawn) | inconclusive: 10 µM [inhibitor, full curve, poor fit] | 
50 | CCCC(=O)O[C@]1(C(=O)CCl)[C@@H](C)C[C@H]2[C@@H]3CCC4=CC(=O)C=C[C@]4(C)[C@@]3(F)C(=O)C[C@@]21C | inactive | 
51 | CC(=O)NCCC(=O)N[C@@H](CCC(N)=O)C(=O)N[C@@H](CO)C(=O)N[C@@H](CCC(N)=O)C(=O)N[C@@H](CCC(N)=O)C(=O)N[C@H](C(=O)N[C@@H](Cc1ccccc1)C(=O)N[C@]1(C)CCCCCCC=CCCC[C@@](C)(C(=O)N[C@@H](CCC(N)=O)C(=O)N[C@@H](CC(N)=O)C(N)=O)NC(=O)[C@H](CC(C)C)NC(=O)[C@H](CC(C)C)NC(=O)[C@@H](CCCNC(=N)N)NC(=O)[C@H](Cc2c[nH]c3ccccc23)NC(=O)[C@H](CC(C)C)NC(=O)[C@H](CC(N)=O)NC1=O)[C@H](C)O | inconclusive: 27.3 µM [inhibitor, single point] | 
52 | COc1ccccc1N1CCN(C(=O)COc2ccc(S(=O)(=O)NC(C)C)cc2)CC1 | inconclusive: 10 µM [inhibitor, full curve, poor fit] | 
53 | NS(=O)(=O)c1ccc(N2N=C(c3ccccc3)CC2c2ccc(Br)cc2)cc1 (stereo not drawn) | inconclusive: 100 µM [inhibitor, single point] | 
54 | Cc1cc(=O)oc2cc(OCC(=O)Oc3ccccc3)ccc12 | inconclusive: 39.8 µM [inhibitor, partial curve, poor fit] | 
55 | CCC(CNC(=O)c1csc2nc(-c3ccccc3Cl)cn12)N(C)C (stereo not drawn) | inactive | 
56 | NC(Cc1ccc(C(F)(F)F)cc1)c1csc(NC(=O)Nc2ccccc2Cl)n1 (stereo not drawn) | inconclusive: 44.7 µM [inhibitor, partial curve, poor fit] | 
57 | COc1cc2c(cc1OC)C(C)N(C(=O)c1cc3c(s1)-c1ccccc1OC3)CC2 (stereo not drawn) | inactive | 
58 | COCc1[nH]nc2c1C(c1ccnc3ccccc13)C(C#N)=C(N)O2 (stereo not drawn) | inactive | 
59 | CCc1ccc(NC(=O)C(CC)n2nnc(C(=O)OC)c2C(=O)OC)cc1 (stereo not drawn) | inconclusive: 126 µM [inhibitor, partial curve, poor fit] | 
60 | CCC1OC(C(C)C)Cc2[nH][nH]c(=O)c21 (stereo not drawn) | inconclusive: 44.7 µM [inhibitor, single point] | 
61 | CC(C)(CNC(=O)NCc1nc2ccccc2s1)N1CCOCC1 | inconclusive: 39.8 µM [inhibitor, partial curve, poor fit] | 
62 | COc1ccc(C)cc1CN1CCN(C(=O)Nc2cccc(C)c2)CC1 | inconclusive: 112 µM [inhibitor, single point] | 
63 | CCOc1ccc(-c2ccc(C=O)o2)c([N+](=O)[O-])c1 | inconclusive: 79.4 µM [inhibitor, single point] | 

Copied from above, compounds 20 to 21
Row | Compound | Potency | activity change, negative = inhibition
20 | CCOc1ccccc1CNC(=O)c1cnc2sc(N3CCCC3)nn2c1=O | inactive | 
21 | CN(C)C/C=C(/c1ccc(Br)cc1)c1cccnc1 | inconclusive: 44.7 µM [inhibitor, partial curve] | 

3 compounds out of the list, arranged by count of non-hydrogen atoms, descending.
Row | Compound | Potency | activity change, negative = inhibition
10 | Cc1ccc(Cl)cc1Nc1nn2c(=O)c3ccc(C(=O)NCc4cccs4)cc3nc2s1 | inconclusive: 79.4 µM [inhibitor, partial curve, poor fit] | 
30 | CNc1oc(Cc2ccccc2)nc1S(=O)(=O)c1ccc(Cl)cc1 | inconclusive: 39.8 µM [inhibitor, single point] | 
22 | O=C(O)c1cc(-c2ccccc2)n(-c2ccc(Cl)cc2)n1 | inconclusive: 50.1 µM [inhibitor, partial curve, poor fit] | 
